Measurements published in the supplement of paper PMC11006884.
The list shows a part of the results, in another mix than the full data.

The chains behind the UniProt entries cited, without tags or fusion partners. Where a name states a change or a piece, a line headed by the entry shows the natural chain unless it says otherwise.
UniProt Q8N300: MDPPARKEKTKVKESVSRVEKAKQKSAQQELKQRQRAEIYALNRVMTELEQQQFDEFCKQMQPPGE
UniProt Q8TEJ3: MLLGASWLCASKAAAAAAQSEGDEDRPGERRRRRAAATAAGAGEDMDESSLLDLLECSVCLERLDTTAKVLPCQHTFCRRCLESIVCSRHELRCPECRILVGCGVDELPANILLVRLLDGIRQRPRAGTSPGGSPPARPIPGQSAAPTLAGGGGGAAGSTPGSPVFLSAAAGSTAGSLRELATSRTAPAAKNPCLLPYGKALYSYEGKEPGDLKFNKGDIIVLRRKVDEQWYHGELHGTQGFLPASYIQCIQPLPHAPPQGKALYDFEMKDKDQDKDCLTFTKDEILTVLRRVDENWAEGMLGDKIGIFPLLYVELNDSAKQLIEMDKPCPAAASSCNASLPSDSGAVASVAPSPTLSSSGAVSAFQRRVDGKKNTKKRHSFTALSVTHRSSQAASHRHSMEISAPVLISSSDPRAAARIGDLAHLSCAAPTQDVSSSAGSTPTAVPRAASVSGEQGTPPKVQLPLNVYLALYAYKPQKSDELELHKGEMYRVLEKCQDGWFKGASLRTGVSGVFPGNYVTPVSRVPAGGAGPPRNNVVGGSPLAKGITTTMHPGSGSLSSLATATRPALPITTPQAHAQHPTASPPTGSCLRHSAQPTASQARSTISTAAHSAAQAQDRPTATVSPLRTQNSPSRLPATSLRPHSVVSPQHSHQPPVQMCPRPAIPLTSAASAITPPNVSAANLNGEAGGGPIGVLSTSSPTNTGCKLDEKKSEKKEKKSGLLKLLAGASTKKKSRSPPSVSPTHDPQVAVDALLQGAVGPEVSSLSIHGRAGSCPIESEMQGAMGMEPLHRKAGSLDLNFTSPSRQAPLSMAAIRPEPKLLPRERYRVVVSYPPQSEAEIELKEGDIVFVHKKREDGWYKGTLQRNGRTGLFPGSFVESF
UniProt Q8ND82: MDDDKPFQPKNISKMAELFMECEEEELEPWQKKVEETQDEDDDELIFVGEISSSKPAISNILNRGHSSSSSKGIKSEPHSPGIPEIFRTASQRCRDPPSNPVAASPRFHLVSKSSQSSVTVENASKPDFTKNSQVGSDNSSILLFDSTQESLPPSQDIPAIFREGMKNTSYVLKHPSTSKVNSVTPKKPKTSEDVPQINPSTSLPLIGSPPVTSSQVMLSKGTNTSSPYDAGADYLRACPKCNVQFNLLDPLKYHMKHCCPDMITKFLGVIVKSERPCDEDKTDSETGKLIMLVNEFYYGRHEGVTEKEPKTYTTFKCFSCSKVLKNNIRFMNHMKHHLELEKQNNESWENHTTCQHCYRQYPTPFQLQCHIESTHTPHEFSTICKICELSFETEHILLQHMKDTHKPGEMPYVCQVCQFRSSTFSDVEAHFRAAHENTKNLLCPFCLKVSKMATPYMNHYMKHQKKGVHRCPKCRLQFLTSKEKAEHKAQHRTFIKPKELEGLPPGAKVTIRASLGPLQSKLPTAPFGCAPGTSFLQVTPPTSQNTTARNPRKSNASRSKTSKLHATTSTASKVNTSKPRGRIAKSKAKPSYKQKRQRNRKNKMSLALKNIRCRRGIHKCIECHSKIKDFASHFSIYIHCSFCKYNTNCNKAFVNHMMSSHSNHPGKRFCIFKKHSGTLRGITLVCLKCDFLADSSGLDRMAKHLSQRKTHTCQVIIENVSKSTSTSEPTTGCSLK
UniProt Q8WXE1: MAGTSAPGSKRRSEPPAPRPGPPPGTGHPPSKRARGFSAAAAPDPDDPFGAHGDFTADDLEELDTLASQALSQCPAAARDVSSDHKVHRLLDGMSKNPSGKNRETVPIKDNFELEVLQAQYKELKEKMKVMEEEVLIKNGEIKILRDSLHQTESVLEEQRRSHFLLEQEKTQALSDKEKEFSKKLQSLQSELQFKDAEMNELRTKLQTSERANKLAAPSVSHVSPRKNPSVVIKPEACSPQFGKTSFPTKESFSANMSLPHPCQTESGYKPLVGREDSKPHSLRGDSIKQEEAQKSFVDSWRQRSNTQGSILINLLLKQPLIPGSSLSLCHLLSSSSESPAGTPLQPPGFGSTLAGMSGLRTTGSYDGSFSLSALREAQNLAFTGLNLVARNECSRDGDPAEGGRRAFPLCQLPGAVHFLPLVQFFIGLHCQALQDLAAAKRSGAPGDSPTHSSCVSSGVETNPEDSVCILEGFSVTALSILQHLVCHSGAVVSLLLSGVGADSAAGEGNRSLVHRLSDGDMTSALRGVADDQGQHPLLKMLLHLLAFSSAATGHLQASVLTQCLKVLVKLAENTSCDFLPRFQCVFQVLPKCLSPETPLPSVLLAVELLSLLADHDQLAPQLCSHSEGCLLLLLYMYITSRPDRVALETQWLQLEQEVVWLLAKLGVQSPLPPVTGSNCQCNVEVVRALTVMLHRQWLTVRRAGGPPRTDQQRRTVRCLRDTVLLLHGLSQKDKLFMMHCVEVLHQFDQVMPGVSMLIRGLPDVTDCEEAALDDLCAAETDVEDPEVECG
UniProt Q8TEQ6: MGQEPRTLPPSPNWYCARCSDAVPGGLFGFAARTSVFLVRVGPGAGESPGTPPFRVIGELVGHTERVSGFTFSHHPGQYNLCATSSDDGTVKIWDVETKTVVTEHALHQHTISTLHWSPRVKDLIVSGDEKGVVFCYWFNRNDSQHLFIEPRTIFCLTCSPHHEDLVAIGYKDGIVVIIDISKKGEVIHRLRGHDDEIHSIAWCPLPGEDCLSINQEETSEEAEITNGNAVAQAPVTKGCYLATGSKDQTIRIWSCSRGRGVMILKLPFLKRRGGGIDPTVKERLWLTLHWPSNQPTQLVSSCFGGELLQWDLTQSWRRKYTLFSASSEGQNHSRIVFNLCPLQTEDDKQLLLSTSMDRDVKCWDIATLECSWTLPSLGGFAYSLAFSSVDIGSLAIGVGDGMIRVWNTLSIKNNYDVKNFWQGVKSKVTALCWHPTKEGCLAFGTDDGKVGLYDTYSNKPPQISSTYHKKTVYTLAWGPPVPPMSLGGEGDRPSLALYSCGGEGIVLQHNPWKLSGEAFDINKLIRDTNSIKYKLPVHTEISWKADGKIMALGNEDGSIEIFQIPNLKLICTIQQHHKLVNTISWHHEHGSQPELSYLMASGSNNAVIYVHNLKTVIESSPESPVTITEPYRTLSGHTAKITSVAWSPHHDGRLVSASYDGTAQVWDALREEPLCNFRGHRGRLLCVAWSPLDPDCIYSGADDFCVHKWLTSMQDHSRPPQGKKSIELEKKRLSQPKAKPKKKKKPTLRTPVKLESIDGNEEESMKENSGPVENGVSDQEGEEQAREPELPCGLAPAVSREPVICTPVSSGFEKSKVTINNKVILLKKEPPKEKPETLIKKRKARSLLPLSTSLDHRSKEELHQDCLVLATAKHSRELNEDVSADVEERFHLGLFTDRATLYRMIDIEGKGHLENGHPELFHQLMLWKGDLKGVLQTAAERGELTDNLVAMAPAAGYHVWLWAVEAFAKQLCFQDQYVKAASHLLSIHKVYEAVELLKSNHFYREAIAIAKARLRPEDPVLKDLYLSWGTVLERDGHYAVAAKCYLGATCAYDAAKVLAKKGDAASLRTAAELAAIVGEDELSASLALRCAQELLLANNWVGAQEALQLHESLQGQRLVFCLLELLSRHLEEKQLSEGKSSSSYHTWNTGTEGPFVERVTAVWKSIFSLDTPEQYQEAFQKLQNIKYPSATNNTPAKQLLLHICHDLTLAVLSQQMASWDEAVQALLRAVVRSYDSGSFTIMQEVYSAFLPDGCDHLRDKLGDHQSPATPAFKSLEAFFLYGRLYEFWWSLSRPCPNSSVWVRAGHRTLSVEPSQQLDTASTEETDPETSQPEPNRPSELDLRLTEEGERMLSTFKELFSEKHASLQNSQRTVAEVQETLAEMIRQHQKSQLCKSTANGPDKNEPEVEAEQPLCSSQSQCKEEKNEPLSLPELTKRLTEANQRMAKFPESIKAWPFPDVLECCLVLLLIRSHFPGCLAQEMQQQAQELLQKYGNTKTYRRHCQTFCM
UniProt Q8NEW0: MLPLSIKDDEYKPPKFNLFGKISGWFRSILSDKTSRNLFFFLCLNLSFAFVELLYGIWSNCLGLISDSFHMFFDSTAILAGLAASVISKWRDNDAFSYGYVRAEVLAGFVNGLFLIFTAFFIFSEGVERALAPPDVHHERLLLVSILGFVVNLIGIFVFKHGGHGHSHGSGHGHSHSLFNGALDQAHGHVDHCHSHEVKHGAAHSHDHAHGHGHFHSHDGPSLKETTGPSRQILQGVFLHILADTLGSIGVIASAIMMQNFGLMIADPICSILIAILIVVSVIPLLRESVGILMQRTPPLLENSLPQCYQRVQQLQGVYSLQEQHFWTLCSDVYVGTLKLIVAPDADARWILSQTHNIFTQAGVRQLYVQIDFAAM
UniProt Q8TDX7: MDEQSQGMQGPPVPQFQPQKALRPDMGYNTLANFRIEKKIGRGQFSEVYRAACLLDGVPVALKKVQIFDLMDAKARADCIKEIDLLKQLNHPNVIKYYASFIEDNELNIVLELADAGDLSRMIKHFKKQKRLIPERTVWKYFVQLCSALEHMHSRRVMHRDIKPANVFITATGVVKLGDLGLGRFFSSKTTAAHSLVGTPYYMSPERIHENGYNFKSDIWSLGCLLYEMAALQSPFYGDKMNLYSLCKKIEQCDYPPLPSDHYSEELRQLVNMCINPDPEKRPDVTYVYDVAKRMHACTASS
UniProt Q8WVT3: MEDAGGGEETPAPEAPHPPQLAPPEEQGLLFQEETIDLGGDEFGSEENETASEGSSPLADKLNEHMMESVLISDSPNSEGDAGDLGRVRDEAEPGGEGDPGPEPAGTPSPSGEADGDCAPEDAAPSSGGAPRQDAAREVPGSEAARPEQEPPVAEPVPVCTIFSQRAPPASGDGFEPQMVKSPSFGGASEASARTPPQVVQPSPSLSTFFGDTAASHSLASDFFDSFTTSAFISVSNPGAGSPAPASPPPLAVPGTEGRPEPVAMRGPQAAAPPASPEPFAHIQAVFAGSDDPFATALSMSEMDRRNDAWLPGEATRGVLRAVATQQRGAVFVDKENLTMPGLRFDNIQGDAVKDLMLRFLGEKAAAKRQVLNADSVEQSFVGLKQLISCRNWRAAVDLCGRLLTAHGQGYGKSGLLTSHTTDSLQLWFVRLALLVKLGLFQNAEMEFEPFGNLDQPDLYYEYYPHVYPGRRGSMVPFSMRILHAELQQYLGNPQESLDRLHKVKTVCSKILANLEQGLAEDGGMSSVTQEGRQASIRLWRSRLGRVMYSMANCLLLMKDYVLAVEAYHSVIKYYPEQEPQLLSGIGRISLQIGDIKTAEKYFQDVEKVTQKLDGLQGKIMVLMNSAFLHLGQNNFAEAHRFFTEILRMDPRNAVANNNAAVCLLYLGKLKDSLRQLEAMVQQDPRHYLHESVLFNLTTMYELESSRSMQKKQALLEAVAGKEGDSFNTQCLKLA
UniProt Q8TEX9: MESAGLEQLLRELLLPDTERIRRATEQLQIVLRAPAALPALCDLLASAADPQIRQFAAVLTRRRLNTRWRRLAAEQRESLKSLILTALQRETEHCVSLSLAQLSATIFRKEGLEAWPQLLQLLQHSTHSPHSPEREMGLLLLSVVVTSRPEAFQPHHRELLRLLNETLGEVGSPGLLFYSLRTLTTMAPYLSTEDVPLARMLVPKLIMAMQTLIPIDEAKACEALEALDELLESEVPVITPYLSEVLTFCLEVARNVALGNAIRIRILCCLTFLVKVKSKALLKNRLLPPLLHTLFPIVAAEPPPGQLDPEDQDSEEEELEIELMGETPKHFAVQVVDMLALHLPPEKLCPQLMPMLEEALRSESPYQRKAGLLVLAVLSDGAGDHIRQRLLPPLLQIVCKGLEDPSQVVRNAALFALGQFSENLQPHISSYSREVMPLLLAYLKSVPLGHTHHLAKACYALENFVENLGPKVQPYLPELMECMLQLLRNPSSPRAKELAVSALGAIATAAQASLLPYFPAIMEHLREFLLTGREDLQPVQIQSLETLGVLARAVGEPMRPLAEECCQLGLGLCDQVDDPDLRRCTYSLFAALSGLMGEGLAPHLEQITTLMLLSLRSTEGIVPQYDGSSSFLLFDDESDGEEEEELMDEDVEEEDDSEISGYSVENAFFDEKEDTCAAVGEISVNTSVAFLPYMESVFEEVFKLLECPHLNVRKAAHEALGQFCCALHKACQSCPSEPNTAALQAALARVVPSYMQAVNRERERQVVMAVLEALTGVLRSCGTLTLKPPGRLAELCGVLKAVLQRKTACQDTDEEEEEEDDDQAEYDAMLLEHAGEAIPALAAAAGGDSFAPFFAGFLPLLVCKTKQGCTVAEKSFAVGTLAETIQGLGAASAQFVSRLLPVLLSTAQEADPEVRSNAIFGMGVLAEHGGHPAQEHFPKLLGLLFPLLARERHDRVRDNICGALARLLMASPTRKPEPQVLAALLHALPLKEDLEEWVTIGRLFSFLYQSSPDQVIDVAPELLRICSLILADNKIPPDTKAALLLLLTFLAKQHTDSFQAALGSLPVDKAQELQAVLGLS

Compound: COC(=O)C#Cc1ccccc1 [methyl 3-phenylpropiolate]
Test: log2 ratio of iodoacetamide-alkyne labeling of the cysteine site, DMSO over compound (competition); higher = stronger covalent engagement of the cysteine by the compound, active = 1 or more
Conditions: 500 µM; treatment time 1 h; system: HEK293T cell lysate
How it was run: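 Reporter intensities give each cysteine's log2 competition ratio as the mean of control channels over the mean of compound channels. The samples were HEK293T lysate (2 mg/mL) given vehicle or electrophile (500 µM, 1 h, ambient temperature), then iodoacetamide alkyne (1 h), followed by click coupling to sCIP-TMT reagents, pooling, trypsin digestion overnight at 37 °C, streptavidin enrichment, acid elution, Orbitrap Eclipse LC-MS/MS with FAIMS and FragPipe quantification. Duplicate channels and three replicates were run, and cysteines quantified in only one replicate were discarded.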

log2 ratio of iodoacetamide-alkyne labeling, active:
NAT14 C108 (UniProt Q8WUY8) 1.05

log2 ratio of iodoacetamide-alkyne labeling, inactive:
DDX54 C73 (UniProt Q8TDD1) 0.301, LPCAT1 C330 (UniProt Q8NF37) 0.34, ATG4A C217 (UniProt Q8WYN0) 0.291, PHF10 C383 (UniProt Q8WUB8) 0.137, SVBP C58 (UniProt Q8N300) -0.0114, BICD2 C754 (UniProt Q8TD16) 0.332, VPS37A C325 (UniProt Q8NEZ2) 0.476, PDCD6IP C512 (UniProt Q8WUM4) 0.272, UniProt Q8N6R0_C273 0.102, UniProt Q8TEJ3_C103 0.0491, SYNE1 C6090 (UniProt Q8NF91) -0.08, ZNF280C C734 (UniProt Q8ND82) 0.513, PPFIBP2 C446 (UniProt Q8ND30) 0.563, UniProt Q8WVV9_C505 0.137, PARD3 C806 (UniProt Q8TEW0) 0.0738, WDR48 C342 (UniProt Q8TAF3) 0.185, ATRIP C74 (UniProt Q8WXE1) 0.563, WDR19 C1332 (UniProt Q8NEZ3) 0.441, ABCF1 C741 (UniProt Q8NE71) 0.17, GEMIN5 C806 (UniProt Q8TEQ6) 0.414, UniProt Q8WUQ7_C699 0.0859, UniProt Q8NFC6_C1554 0.394, NUP133 C702 (UniProt Q8WUM0) 0.279, SLC30A7 C308 (UniProt Q8NEW0) 0.0935, NEK7 C53 (UniProt Q8TDX7) 0.143, ARFGAP1 C96 (UniProt Q8N6T3) 0.33, GEMIN6 C128 (UniProt Q8WXD5) 0.475, TOR1AIP2 C468 (UniProt Q8NFQ8) 0.403, UniProt Q8WVV9_C84 0.263, XRN1 C1450 (UniProt Q8IZH2) -0.208, PALLD C964 (UniProt Q8WX93) 0.821, UniProt Q8WVT3_C160 0.533, TRUB1 C307 (UniProt Q8WWH5) 0.434, NOC3L C683 (UniProt Q8WTT2) 0.191, VPS8 C864 (UniProt Q8N3P4) 0.00127, IPO4 C350 (UniProt Q8TEX9) 0.564
